No constants are given. Whether binding was seen depends on the method and setting. For part of these data: Binding seen in cells or lysates may run through a third protein. Some entries that bind do so weakly or less than the wild type. Where a sequence is shown, tags or fusion partners need not be part of it.

Test [1] deals with T1, FtsZ-C25, FtsZ of Deinococcus radiodurans fused to the T25 domain of CyaA, in E. coli BTH101 (Deinococcus radiodurans) (UniProt Q9RWN5).
T1 sequence: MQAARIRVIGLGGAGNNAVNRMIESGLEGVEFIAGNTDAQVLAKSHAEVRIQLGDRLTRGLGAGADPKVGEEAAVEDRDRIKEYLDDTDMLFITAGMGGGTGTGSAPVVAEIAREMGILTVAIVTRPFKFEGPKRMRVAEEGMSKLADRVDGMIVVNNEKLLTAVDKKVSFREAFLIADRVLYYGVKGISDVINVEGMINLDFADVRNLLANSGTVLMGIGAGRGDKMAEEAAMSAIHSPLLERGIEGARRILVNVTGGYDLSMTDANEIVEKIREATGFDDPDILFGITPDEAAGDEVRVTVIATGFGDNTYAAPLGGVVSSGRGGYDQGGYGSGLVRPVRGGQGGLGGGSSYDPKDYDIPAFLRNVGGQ
In words: co-IP; cell-free extract (RIPA buffer) of E. coli BTH101 coexpressing FtsA-C18 and FtsZ-C25 with the vector pVHS559 (RqkA absent); precipitated with T25 antibodies, blotted with T18 antibodies.

The target of test [2] is T1, FtsZ-C25, FtsZ of Deinococcus radiodurans fused to the T25 domain of CyaA, in E. coli BTH101 (Deinococcus radiodurans). In words: co-IP; cell-free extract (RIPA buffer) of E. coli BTH101 coexpressing FtsA-C18 and FtsZ-C25 with RqkA (pVHSRqk); precipitated with T25 antibodies, blotted with T18 antibodies.
Test [3] has the same target. In words: two-hybrid; bacterial two-hybrid (BACTH) in E. coli BTH101 at 30°C, FtsA-C18 and FtsZ-C25, with RqkA (pVHSRqk) or vector; white-blue colonies and β-galactosidase activity in liquid culture.

B1: FtsA of Deinococcus radiodurans, purified recombinant (natural protein, UniProt Q9RWN6 1-517, looked up)
chain: MRENSIIVGLDIGTTKITTVIGEVAPDGTIDIIGEGSVPSEGMKRGSVINLERATQAIKQSLHAAERVSGVRAWNVFVSVGGNHTKAMTSHGLAAIRRQQEISPPDVERAIENARAVPLDPSLEILHTIPQEYVVDGQEGIKNPVGMHGVRLEVDVHIVAGSAGPLLNLRRCVQEAGLQIEGFVLHSLASGLATLDHSEQNQTTVVVDMGGGTTDIGVFKRGNLAHSASIPIGGDHVTADLAQILKIPMEEAEKVKRHYGAAIPELADQELTLEITTASGATHAISAYELSRVIRPRVSEIYGLIRDEIDQALGPVELVAQSVVLTGGGAQLPGAVDLARERFRLPTRLGRPRGIHGLSDIVGDPAHACSVGMVLYGITQDGRVPSGLDDGGDPAGYTEYAGRHDQGYPQGGYPAPGYLTAPTGGTHVAPQGTPGSYPGPGYVVSGGQSQGQPYPPMPNTGSHSAGVPSMSGPVIGGQVVGVDPHAQVLVDGQPQRPPSGPKVSLMDRVRSLFRDWF
For the molecule B1, the binding result in test [1] was “binds”; in test [2] it was “binds weakly”; in test [3], “binds”.

Source of the values: PMC6052341, “Phosphorylation of FtsZ and FtsA by a DNA Damage-Responsive Ser/Thr Protein Kinase Affects Their Functional Interactions in Deinococcus radiodurans” (mSphere, 2018).
